PubChem BioAssay AID1259254 | NCATS, 2017

Screen: 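Gene knock-downs that lead to re-replication, shown by excess G2 DNA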 (primary screen)
Cells: human HCT116 colorectal cancer cells
Reagents: single siRNA against human genes
Timing: 3 days
Detection: 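Nuclei stained with Hoechst and imaged; cell-cycle phase assigned by DNA content; G2 share scaled per plate, non-targeting siRNA 0%, GMNN siRNA 100%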
Reading the numbers: G2 robust z-score and G2 cells, % of GMNN control: higher = more G2 cells, more excess DNA replication; raw share of cells in G2: higher = larger share of cells with G2 DNA content
Hit rule: 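Active siRNAs have a G2 robust z of 5 or more median absolute deviations over the median, which in these data means about 38% or higher of GMNN control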
The whole screen tested about 59,000 reagents; shown is an unselected part. About 1,550 of them (2.6%) were called active. 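G2 share is only a proxy for re-replication; each gene was hit by three separate siRNAs, and active genes were retested.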 Raw values vary from plate to plate and are shown uncorrected. Reagents against one gene are numbered here. The record does not give: the amount of reagent.

| G2 robust z-score | G2 cells, % of GMNN control | raw share of cells in G2 (%) | Call | Gene | siRNA no. |
| --- | --- | --- | --- | --- | --- |
| 1.48 | 13.4 | 9.58 | inactive | RALGDS (ral guanine nucleotide dissociation stimulator) | 1 |
| 0.468 | 6.26 | 7.07 | inactive | RALGDS (ral guanine nucleotide dissociation stimulator) | 2 |
| 8.26 | 61.1 | 24.5 | active | RALGDS (ral guanine nucleotide dissociation stimulator) | 3 |
| 1.05 | 10.4 | 7.57 | inactive | BIN1 (bridging integrator 1) | 1 |
| -0.159 | 1.85 | 5.71 | inactive | BIN1 (bridging integrator 1) | 2 |
| 1.75 | 15.3 | 8.66 | inactive | BIN1 (bridging integrator 1) | 3 |
| -1.02 | -4.2 | 3.91 | inactive | SMAP1 (small ArfGAP 1) | 1 |
| 4.02 | 31.2 | 15.4 | inactive | SMAP1 (small ArfGAP 1) | 2 |
| -0.215 | 1.46 | 4.75 | inactive | SMAP1 (small ArfGAP 1) | 3 |
| -0.587 | -1.16 | 4.24 | inactive | PPY (pancreatic polypeptide) | 1 |
| -0.628 | -1.45 | 4.48 | inactive | PPY (pancreatic polypeptide) | 2 |
| 8.1 | 60 | 24.1 | active | PPY (pancreatic polypeptide) | 3 |
| 0.301 | 5.08 | 7.75 | inactive | HES4 (hes family bHLH transcription factor 4) | 1 |
| -1.09 | -4.74 | 2.67 | inactive | HES4 (hes family bHLH transcription factor 4) | 2 |
| -1.09 | -4.73 | 2.51 | inactive | HES4 (hes family bHLH transcription factor 4) | 3 |
| -0.724 | -2.13 | 2.62 | inactive | SNCA (synuclein alpha) | 1 |
| 0.539 | 6.76 | 5.56 | inactive | SNCA (synuclein alpha) | 2 |
| 0.408 | 5.84 | 7.58 | inactive | SNCA (synuclein alpha) | 3 |
| 0.837 | 8.86 | 7.64 | inactive | SCGB3A2 (secretoglobin family 3A member 2) | 1 |
| -0.416 | 0.0433 | 3.34 | inactive | SCGB3A2 (secretoglobin family 3A member 2) | 2 |
| -0.933 | -3.59 | 0.768 | inactive | SCGB3A2 (secretoglobin family 3A member 2) | 3 |
| -0.958 | -3.77 | 3.62 | inactive | ABI1 (abl interactor 1) | 1 |
| 0.639 | 7.46 | 7.06 | inactive | ABI1 (abl interactor 1) | 2 |
| 0.535 | 6.73 | 5.85 | inactive | ABI1 (abl interactor 1) | 3 |
| 1 | 10 | 7.55 | inactive | CDC27P5 (cell division cycle 27 pseudogene 5) | 1 |
| -1.4 | -6.88 | 0.671 | inactive | CDC27P5 (cell division cycle 27 pseudogene 5) | 2 |
| 1.93 | 16.5 | 8.29 | inactive | CDC27P5 (cell division cycle 27 pseudogene 5) | 3 |
| -0.942 | -3.66 | 3.36 | inactive | ATP8B5P (ATPase phospholipid transporting 8B5, pseudogene) | 1 |
| -0.991 | -4.01 | 3.02 | inactive | ATP8B5P (ATPase phospholipid transporting 8B5, pseudogene) | 2 |
| 0.0526 | 3.34 | 7.55 | inactive | ATP8B5P (ATPase phospholipid transporting 8B5, pseudogene) | 3 |
| 0.514 | 6.59 | 6.14 | inactive | RPS26P8 (ribosomal protein S26 pseudogene 8) | 1 |
| 3.76 | 29.4 | 13.8 | inactive | RPS26P8 (ribosomal protein S26 pseudogene 8) | 2 |
| -0.403 | 0.132 | 3.18 | inactive | RPS26P8 (ribosomal protein S26 pseudogene 8) | 3 |
| -0.0377 | 2.7 | 6.22 | inactive | GIP (gastric inhibitory polypeptide) | 1 |
| 2.29 | 19.1 | 12.5 | inactive | GIP (gastric inhibitory polypeptide) | 2 |
| -1.16 | -5.2 | 1.81 | inactive | GIP (gastric inhibitory polypeptide) | 3 |
| 3.98 | 31 | 20.2 | inactive | RACGAP1 (Rac GTPase activating protein 1) | 1 |
| 4 | 31.1 | 14.5 | inactive | RACGAP1 (Rac GTPase activating protein 1) | 2 |
| 7.58 | 56.3 | 22.4 | active | RACGAP1 (Rac GTPase activating protein 1) | 3 |
| -0.936 | -3.62 | 4.04 | inactive | MPG (N-methylpurine DNA glycosylase) | 1 |
| 0.193 | 4.33 | 7.03 | inactive | MPG (N-methylpurine DNA glycosylase) | 2 |
| 3.26 | 25.9 | 11.7 | inactive | MPG (N-methylpurine DNA glycosylase) | 3 |
| 2.38 | 19.7 | 11.8 | inactive | TERT (telomerase reverse transcriptase) | 1 |
| 0.51 | 6.55 | 6.32 | inactive | TERT (telomerase reverse transcriptase) | 2 |
| -0.265 | 1.1 | 5.1 | inactive | TERT (telomerase reverse transcriptase) | 3 |
| -0.342 | 0.563 | 6.68 | inactive | PNPO (pyridoxamine 5'-phosphate oxidase) | 1 |
| 1.74 | 15.2 | 9.88 | inactive | PNPO (pyridoxamine 5'-phosphate oxidase) | 2 |
| 1.44 | 13.1 | 9.79 | inactive | PNPO (pyridoxamine 5'-phosphate oxidase) | 3 |
| -0.366 | 0.396 | 6.07 | inactive | OC90 (otoconin 90) | 1 |
| -0.657 | -1.66 | 4.31 | inactive | OC90 (otoconin 90) | 2 |
| -0.361 | 0.424 | 4.44 | inactive | OC90 (otoconin 90) | 3 |
| -0.00276 | 2.95 | 5.09 | inactive | ADCY2 (adenylate cyclase 2) | 1 |
| -0.0556 | 2.58 | 5.99 | inactive | ADCY2 (adenylate cyclase 2) | 2 |
| -0.861 | -3.09 | 3.67 | inactive | ADCY2 (adenylate cyclase 2) | 3 |
| 0.333 | 5.31 | 5.87 | inactive | TMEM101 (transmembrane protein 101) | 1 |
| 2.54 | 20.9 | 9.64 | inactive | TMEM101 (transmembrane protein 101) | 2 |
| 2.92 | 23.5 | 9.54 | inactive | TMEM101 (transmembrane protein 101) | 3 |
| -0.121 | 2.12 | 7.36 | inactive | PCDHGA7 (protocadherin gamma subfamily A, 7) | 1 |
| -0.719 | -2.09 | 3.69 | inactive | PCDHGA7 (protocadherin gamma subfamily A, 7) | 2 |
| 0.529 | 6.69 | 7.12 | inactive | PCDHGA7 (protocadherin gamma subfamily A, 7) | 3 |
| -0.0355 | 2.72 | 4.56 | inactive | UCMA (upper zone of growth plate and cartilage matrix associated) | 1 |
| -0.358 | 0.446 | 3.28 | inactive | UCMA (upper zone of growth plate and cartilage matrix associated) | 2 |
| -0.0711 | 2.47 | 3.98 | inactive | UCMA (upper zone of growth plate and cartilage matrix associated) | 3 |
| -0.494 | -0.509 | 3.87 | inactive | COX19 (cytochrome c oxidase assembly factor COX19) | 1 |
| 0.589 | 7.11 | 5.23 | inactive | COX19 (cytochrome c oxidase assembly factor COX19) | 2 |
| -0.321 | 0.711 | 3.15 | inactive | COX19 (cytochrome c oxidase assembly factor COX19) | 3 |
| 0.627 | 7.38 | 7.8 | inactive | RGL4 (ral guanine nucleotide dissociation stimulator like 4) | 1 |
| -0.469 | -0.331 | 5.8 | inactive | RGL4 (ral guanine nucleotide dissociation stimulator like 4) | 2 |
| 5.8 | 43.8 | 20.7 | active | RGL4 (ral guanine nucleotide dissociation stimulator like 4) | 3 |

Active calls, among the entries above:
| G2 robust z-score | G2 cells, % of GMNN control | raw share of cells in G2 (%) | Call | Gene | siRNA no. |
| --- | --- | --- | --- | --- | --- |
| 8.26 | 61.1 | 24.5 | active | RALGDS (ral guanine nucleotide dissociation stimulator) | 3 |
| 8.1 | 60 | 24.1 | active | PPY (pancreatic polypeptide) | 3 |
| 7.58 | 56.3 | 22.4 | active | RACGAP1 (Rac GTPase activating protein 1) | 3 |
| 5.8 | 43.8 | 20.7 | active | RGL4 (ral guanine nucleotide dissociation stimulator like 4) | 3 |
